Measured values taken from PubChem BioAssay AID1671190 (National Center for Advancing Translational Sciences (NCATS), 2021).
The whole screen tested about 580,000 compounds, of which about 6,100 (1.1%) were called active. Inconclusive results, whose numbers are uncertain, are shown with a selection of clear calls. The call rests on the fitted dose curve; in most records, active means well fitted inhibition curve with a large enough effect; inconclusive means small, poorly fitted or top-dose-only effect, or another doubt; inactive means no such curve, though single readings can be large or run the other way. Potencies beside an inconclusive call are fits to weak or partial responses and may not hold up.

Sequences of proteins named here, by UniProt entry; tags and fusion partners are left off.
UniProt P18054, whole entry, looked up: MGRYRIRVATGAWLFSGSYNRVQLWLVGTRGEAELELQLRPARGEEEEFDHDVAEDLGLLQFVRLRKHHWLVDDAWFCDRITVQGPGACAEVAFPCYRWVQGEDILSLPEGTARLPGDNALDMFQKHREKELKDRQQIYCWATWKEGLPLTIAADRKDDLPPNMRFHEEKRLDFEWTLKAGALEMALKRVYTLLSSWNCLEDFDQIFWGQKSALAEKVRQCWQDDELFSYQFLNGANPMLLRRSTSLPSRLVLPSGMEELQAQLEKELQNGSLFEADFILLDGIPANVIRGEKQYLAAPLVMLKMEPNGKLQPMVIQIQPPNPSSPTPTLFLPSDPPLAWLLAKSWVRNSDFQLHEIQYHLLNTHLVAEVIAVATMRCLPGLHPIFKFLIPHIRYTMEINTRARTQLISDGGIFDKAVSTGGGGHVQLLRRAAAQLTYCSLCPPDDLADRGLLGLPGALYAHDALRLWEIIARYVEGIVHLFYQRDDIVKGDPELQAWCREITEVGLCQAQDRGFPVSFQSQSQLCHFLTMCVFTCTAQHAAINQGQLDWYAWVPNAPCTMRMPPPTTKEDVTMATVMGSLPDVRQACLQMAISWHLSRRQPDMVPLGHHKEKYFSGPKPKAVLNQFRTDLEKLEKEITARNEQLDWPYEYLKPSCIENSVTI

Target: Polyunsaturated fatty acid lipoxygenase ALOX12 (Homo sapiens) (UniProt P18054)
Experiment: Primary qHTS assay for inhibitors of human arachidonate 12S-lipoxygenase (ALOX12): Round 2
Conditions: purified 12hLO, xylenol orange hydroperoxide absorbance; activity change, negative = inhibition: at 108 µM (top of the series) unless noted
How it was run: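 Purified human 12hLO at 150 nM in 25 mM Hepes, 0.01% Triton X-100, pH 7.0, preincubated 15 min at room temperature with compound. Reaction started with 40 uM arachidonic acid, 30 min at room temperature. Hydroperoxide measured by Fe-xylenol orange, 573/405 nm absorbance ratio.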
On the % scale 0 is the no-effect control and ±100 the full control effect; potency means the concentration at half of the fitted maximal effect.

Structure (SMILES)	activity change, negative = inhibition	Potency
Cc1nc(NC(=O)COC(=O)c2ccc(S(=O)(=O)N3CCc4ccccc4C3)cc2)c(Cl)cc1Cl	inactive: -13.9%	–
CN(C)c1ncc2nc(-c3ccc(F)cc3)c(=O)n(Cc3ccc(F)cc3)c2n1	–	inconclusive: 35.5 µM [inhibitor, single point]
Cc1ccc2c(Cn3cc(S(=O)(=O)N4CCCC4)ccc3=O)cc(=O)oc2c1	–	inconclusive: 100 µM [inhibitor, single point]
COc1ccc(C(=O)N/N=C/c2cc(Br)ccc2O)cc1OC	–	inconclusive: 39.8 µM [inhibitor, partial curve, poor fit]
COc1cc([N+](=O)[O-])cc(/C=N/NC(=O)c2cncc(Br)c2)c1O	–	inconclusive: 44.7 µM [inhibitor, partial curve, poor fit]
O=C1CCC/C(=N/NS(=O)(=O)c2ccc(Br)cc2)C1	–	inconclusive: 44.7 µM [inhibitor, partial curve, poor fit]
O=C(O)C/C(=C/c1cccs1)c1nc2ccccc2s1	–	inconclusive: 50.1 µM [inhibitor, single point]
O=C(c1ccccc1)N1CCN(C(=O)c2ccccc2)CC1	inactive: 0%	–
COc1ccc(CCNS(=O)(=O)c2cc3c4c(c2)CCN4C(=O)CC3)cc1	–	inconclusive: 44.7 µM [inhibitor, partial curve]
Cc1cc(C)cc(NC(=S)N(Cc2cccc(Br)c2)CC2CCC(C(=O)O)CC2)c1 (stereo unspecified)	–	inconclusive: 63.1 µM [inhibitor, partial curve, poor fit]
Cc1ccc(Sc2ccc(Sc3ccc(C)cc3)c(C#N)c2)cc1	inactive: 3.52%	–
c1csc(-c2nnc(NC3CCCCC3)c3ccccc23)c1	inactive: -14.3%	–
CCn1cc(SCC(=O)N2CCc3ccccc32)c2ccccc21	–	inconclusive: 100 µM [inhibitor, single point]
O=C(O)c1cccc(CN2C(=O)CSC2=O)c1	–	inconclusive: 141 µM [inhibitor, single point]
COC(=O)/C=C1\SC(=NC(=O)c2cccc([N+](=O)[O-])c2)NC1=O	–	inconclusive: 39.8 µM [inhibitor, partial curve, poor fit]
CC(C)c1ccc(CN2CCc3c(n(Cc4ccccc4)n(-c4ccccc4)c3=O)C2)cc1	–	inconclusive: 20 µM [inhibitor, full curve]
Cc1cc2cc(C(c3nnnn3Cc3ccco3)N3CCCCC3)c(=O)[nH]c2cc1C (stereo unspecified)	–	inconclusive: 35.5 µM [inhibitor, partial curve, poor fit]
O=C(CN1C(=O)CCC1=O)Nc1ccc(Br)cc1	–	active: 44.7 µM
Brc1ccc(-c2csc(NC3CCCCC3)n2)cc1	–	inconclusive: 79.4 µM [inhibitor, partial curve, poor fit]
CC(=O)Nc1cc(-c2ccc(F)cc2)cn2c(-c3ccc(S(C)(=O)=O)cc3)cnc12	–	inconclusive: 35.5 µM [inhibitor, partial curve, poor fit]
Cc1c(C)n2c(SCC(=O)N3CC(C)OC(C)C3)nnc2[nH]c1=O (stereo unspecified)	–	inconclusive: 79.4 µM [inhibitor, partial curve, poor fit]
O=C(CSc1nnc(-c2ccccc2)c(-c2ccccc2)n1)NC1CCCC1	–	inconclusive: 178 µM [inhibitor, single point]

Structure (SMILES)	activity change, negative = inhibition	Potency
CC(=O)Nc1cc(-c2ccc(N)nc2)cn2c(-c3cccc(C(F)(F)F)c3)cnc12	–	inconclusive: 44.7 µM [inhibitor, partial curve, poor fit]
CCOC(=O)COc1ccc(C)cc1C(=O)c1ccn2nc(-c3ccccc3)cc2n1	–	inconclusive: 0.224 µM [inhibitor, full curve, poor fit]
Cn1c(CSc2ccccc2Cl)nc2c1c(=O)[nH]c(=O)n2C	–	inconclusive: 35.5 µM [inhibitor, partial curve, poor fit]
COc1ccc(CCn2c(=N)c(C(=O)NCC3CCCO3)cc3c(=O)n4ccccc4nc32)cc1 (stereo unspecified)	–	inconclusive: 39.8 µM [inhibitor, partial curve, poor fit]
CCNC(=S)N(CCc1ccc(S(N)(=O)=O)cc1)C1CC(=O)N(c2ccccc2)C1=O (stereo unspecified)	–	inconclusive: 35.5 µM [inhibitor, partial curve, poor fit]
COc1ccc(NC(=O)c2cc3c(s2)CCC3)cc1S(=O)(=O)N1CCOCC1	inactive: 44.6%	–
COC(=O)c1ccc(Nc2cc(C)nc(-c3ccccc3O)n2)cc1	–	inconclusive: 79.4 µM [inhibitor, single point]
CCN1C(C(=O)c2ccccc2)=C(OC(=O)c2ccc(OC)cc2)c2ccccc2S1(=O)=O	inactive: -25.9%	–
CCCCCCCCCCCCCCCCCCCCCCO	–	inconclusive: 0.243 µM [inhibitor, full curve]
N#Cc1ccc(C(=O)NC2(c3ccc(Br)cc3)CC2)cc1	inactive: -6.65%	–
Cc1ccc(Cn2c(=N)n(CC(=O)c3ccccc3)c3ccccc32)cc1	–	inconclusive: 44.7 µM [inhibitor, partial curve, poor fit]
Cc1ccc(C2CC(=O)Nc3cc4c(cc32)OCO4)cc1Br (stereo unspecified)	–	inconclusive: 100 µM [inhibitor, single point]
Cc1cc(C)c2nc(C)cc(Nc3ccc(C(=O)NCCO)cc3)c2c1	–	inconclusive: 100 µM [inhibitor, single point]
COC(=O)C1=C(C(=O)OC)SC(=C(Cl)C(=S)Nc2ccccc2)S1	–	inconclusive: 28.2 µM [inhibitor, partial curve, poor fit]
Cc1cc(C)cc(Nc2ccc([N+](=O)[O-])cn2)c1	inactive: 24.2%	–
CCOc1ccc(C(=O)N2CCCCCC2)cc1	inactive: 50.1%	–
Cc1ccc(Cl)cc1NC(=O)CN1CCCN(c2ccc(C(F)(F)F)cn2)CC1	–	inconclusive: 35.5 µM [inhibitor, partial curve, poor fit]
O=C(O)c1cccc(S(=O)(=O)NCc2ccco2)c1	–	inconclusive: 44.7 µM [inhibitor, partial curve, poor fit]
Cn1c(CNC(=O)c2ccco2)nnc1SCC(=O)Nc1ccccc1Cl	–	inconclusive: 3.16 µM [inhibitor, full curve, poor fit]
OC(C#Cc1ccccc1)C#CC(O)(c1ccccc1)c1ccccc1 (stereo unspecified)	–	inconclusive: 25.1 µM [inhibitor, partial curve]
COc1ccc(N2CCN(CCNC(=O)c3c(C)cc(=O)oc3C)CC2)cc1	inactive: 22.2%	–
CC(=O)c1c(OS(=O)(=O)c2ccccc2-c2ccccc2)ccc2c(C)cc(=O)oc12	–	inconclusive: 44.7 µM [inhibitor, partial curve, poor fit]

Ordered by molecular weight (high to low): part of the list above
Structure (SMILES)	activity change, negative = inhibition	Potency
COc1ccc(CCn2c(=N)c(C(=O)NCC3CCCO3)cc3c(=O)n4ccccc4nc32)cc1 (stereo unspecified)	–	inconclusive: 39.8 µM [inhibitor, partial curve, poor fit]
CC(=O)Nc1cc(-c2ccc(N)nc2)cn2c(-c3cccc(C(F)(F)F)c3)cnc12	–	inconclusive: 44.7 µM [inhibitor, partial curve, poor fit]
Cc1ccc(Cn2c(=N)n(CC(=O)c3ccccc3)c3ccccc32)cc1	–	inconclusive: 44.7 µM [inhibitor, partial curve, poor fit]
CCCCCCCCCCCCCCCCCCCCCCO	–	inconclusive: 0.243 µM [inhibitor, full curve]

Following part.

Structure (SMILES)	activity change, negative = inhibition	Potency
O=C(Nc1ccc(Cl)cc1)N1CCn2c(nn(-c3ccc(C(F)(F)F)cc3)c2=O)C1	–	inconclusive: 56.2 µM [inhibitor, partial curve]
O=C1[C@@H]2CSCN2C(=O)CN1CCc1cccc(F)c1	–	inconclusive: 112 µM [inhibitor, single point]
Cc1cc2c3c([nH]c2cc1S(=O)(=O)N1CCC2(CC1)OCCO2)CC(C)(C)CC3=O	inactive: 0%	–
O=C(NCc1ccc(F)cc1)c1nc(-c2ccc(F)cc2)c2cnccn12	–	inconclusive: 6.31 µM [inhibitor, full curve]
NS(=O)(=O)c1ccc(NC2=CC(=O)c3ccccc3C2=O)cc1	–	inconclusive: 19.3 µM [inhibitor, partial curve]
COCCC1(CO)CCCN(c2ncc(F)c(N3CCCC3)n2)C1 (stereo unspecified)	inactive: -0.312%	–
CCCN1CCN(CCCNC(=S)Nc2ccc3nc(N4CCN(CC)CC4)cc(C)c3c2)CC1	inactive: -17.1%	–
NC(=O)c1cc(-c2csc(-c3cccnc3)n2)ccc1O	–	inconclusive: 39.8 µM [inhibitor, partial curve, poor fit]
Cn1c(=O)c2c(-c3ccc(Br)cc3)n(CCc3ccccc3)cc2n(C)c1=O	–	inconclusive: 44.7 µM [inhibitor, partial curve, poor fit]
CCCCOCCCNCc1cccn1CCN1CCOCC1	–	inconclusive: 0.708 µM [inhibitor, full curve, poor fit]
COc1cc(CC(=O)N(c2ccccc2)c2nc(C)cs2)cc(OC)c1OC	inactive: -0.901%	–
Cc1cccc(NC(=S)NNc2ncc(C(F)(F)F)cc2Cl)c1	–	inconclusive: 20 µM [inhibitor, full curve]
O=C(Cc1ccc(-n2c(=O)c3sccc3n(Cc3ccc(F)cc3)c2=O)cc1)NCc1ccco1	–	inconclusive: 126 µM [inhibitor, single point]
CC1=C(C(=O)OCc2ccccc2)C(c2ccccc2Cl)NC(=O)N1C (stereo unspecified)	inactive: 0%	–
O=C(Nc1cccc(Cl)c1)OCc1cnc(Cl)s1	–	active: 25.1 µM
COc1ccc(C2C(C(C)=O)=C(O)C(=O)N2CCCn2ccnc2)cc1OC (stereo unspecified)	–	inconclusive: 35.5 µM [inhibitor, partial curve, poor fit]
Cn1c(=O)[nH]c(=O)c2c1nc(N1CCN(Cc3ccccc3Cl)CC1)n2Cc1ccccc1F	–	inconclusive: 31.6 µM [inhibitor, partial curve, poor fit]
Cc1ccc(C(=O)C2CCN(CCC#N)CC2)c(C)c1	inactive: -3.52%	–
COc1ccccc1CN(CCCO)CC(C#N)CCC#N (stereo unspecified)	inactive: 2.55%	–
CCc1cc2cc3c(cc2nc1SCC(=O)N1CCN(C(=O)c2ccco2)CC1)OCO3	inactive: -0.445%	–
O=C(CCN1CCc2ccccc2C(O)(c2ccccc2)C1)c1ccc2c(c1)OCCO2 (stereo unspecified)	–	inconclusive: 56.2 µM [inhibitor, partial curve, poor fit]
COC(=O)c1ccc(NC(=O)c2c(C(=O)Nc3ccccc3)sc3nc(C)cc(=O)n23)cc1	–	inconclusive: 112 µM [inhibitor, single point]
